# Data published in the supplement of paper PMC8728848.
# This is one part of the list.
# Tests used:
# Test in all cases: glycan array binding signal (z-score within array); higher = stronger binding
# Details in all cases: glycan notation: IUPAC condensed, linker removed
# [1] = molecular target: Gal3S4S(b1-4)GlcNAc
# How it was run: (§1)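 The binding signal is a Z-score computed within each array and averaged over linkers. Arrays of the same protein sequence at different concentrations or buffers were also averaged together. Data originate from 3228 arrays in the Consortium for Functional Glycomics database, kept only where the protein sequence was available.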
# [2] = molecular target: Gal3S6S(b1-4)GlcNAc
# How it was run: as §1
# [3] = molecular target: Gal3S6S(b1-4)GlcNAc6S
# How it was run: as §1
# [4] = molecular target: Gal4S(b1-4)GlcNAc
# How it was run: as §1
# [5] = molecular target: Gal4S6S(b1-4)GlcNAc
# How it was run: as §1
# [6] = molecular target: Gal6P(b1-4)GlcNAc
# How it was run: as §1
# [7] = molecular target: Gal6S(b1-3)GlcNAc
# How it was run: as §1
# [8] = molecular target: Gal6S(b1-3)GlcNAc6S
# How it was run: as §1
# [9] = molecular target: Gal6S(b1-4)Glc
# How it was run: as §1
# [10] = molecular target: Gal6S(b1-4)Glc6S
# How it was run: as §1
# [11] = molecular target: Gal6S(b1-4)GlcNAc
# How it was run: as §1
# [12] = molecular target: Gal6S(b1-4)GlcNAc6S
# How it was run: as §1
# [13] = molecular target: GalNAc(a1-3)Gal
# How it was run: as §1
# [14] = molecular target: GalNAc(a1-3)GalNAc
# How it was run: as §1
# [15] = molecular target: GalNAc(a1-3)GalNAc(b1-3)Gal(a1-4)Gal(b1-4)Glc
# How it was run: as §1
# [16] = molecular target: GalNAc(a1-3)GalNAc(b1-3)Gal(a1-4)Gal(b1-4)GlcNAc
# How it was run: as §1
# [17] = molecular target: GalNAc(b1-3)Gal
# How it was run: as §1
# [18] = molecular target: GalNAc(b1-3)Gal(a1-4)Gal(b1-4)GlcNAc
# How it was run: as §1
# [19] = molecular target: GalNAc(b1-3)Gal(a1-4)Gal(b1-4)GlcNAc(b1-3)Gal(b1-4)Glc
# How it was run: as §1
# [20] = molecular target: GalNAc(b1-3)Gal(a1-6)Gal(b1-4)Glc
# How it was run: as §1
# [21] = molecular target: GalNAc(b1-3)GalNAc
# How it was run: as §1
# [22] = molecular target: GalNAc(b1-4)Gal(b1-4)Glc
# How it was run: as §1
# [23] = molecular target: GalNAc(b1-4)GlcNAc
# How it was run: as §1
# [24] = molecular target: GalNAc(b1-4)GlcNAc(b1-2)Man(a1-3)[GalNAc(b1-4)GlcNAc(b1-2)Man(a1-6)]Man(b1-4)GlcNAc(b1-4)GlcNAc
# How it was run: as §1
# [25] = molecular target: GalNAc(b1-4)GlcNAc6S
# How it was run: as §1
# [26] = molecular target: GalNAc(b1-6)GalNAc
# How it was run: as §1
# [27] = molecular target: GalNAc3S(b1-4)GlcNAc
# How it was run: as §1
# [28] = molecular target: GalNAc3S(b1-4)GlcNAc3S
# How it was run: as §1
# [29] = molecular target: GalNAc4S6S(b1-4)GlcNAc
# How it was run: as §1
# [30] = molecular target: GalNAc6S(b1-4)GlcNAc
# How it was run: as §1
binder,measurement,setting,value
"Latrophilin-3 (Homo sapiens), Q9HAR2 (protein) MWPSQLLIFMMLLAPIIHAFSRAPIPMAVVRRELSCESYPIELRCPGTDVIMIESANYGRTDDKICDSDPAQMENIRCYLPDAYKIMSQRCNNRTQCAVVAGPDVFPDPCPGTYKYLEVQYECVPYKVEQKVFLCPGLLKGVYQSEHLFESDHQSGAWCKDPLQASDKIYYMPWTPYRTDTLTEYSSKDDFIAGRPTTTYKLPHRVDGTGFVVYDGALFFNKERTRNIVKFDLRTRIKSGEAIIANANYHDTSPYRWGGKSDIDLAVDENGLWVIYATEQNNGKIVISQLNPYTLRIEGTWDTAYDKRSASNAFMICGILYVVKSVYEDDDNEATGNKIDYIYNTDQSKDSLVDVPFPNSYQYIAAVDYNPRDNLLYVWNNYHVVKYSLDFGPLDSRSGQAHHGQVSYISPPIHLDSELERPSVKDISTTGPLGMGSTTTSTTLRTTTLSPGRSTTPSVSGRRNRSTSTPSPAVEVLDDMTTHLPSASSQIPALEESCEAVEAREIMWFKTRQGQIAKQPCPAGTIGVSTYLCLAPDGIWDPQGPDLSNCSSPWVNHITQKLKSGETAANIARELAEQTRNHLNAGDITYSVRAMDQLVGLLDVQLRNLTPGGKDSAARSLNKAMVETVNNLLQPQALNAWRDLTTSDQLRAATMLLHTVEESAFVLADNLLKTDIVRENTDNIKLEVARLSTEGNLEDLKFPENMGHGSTIQLSANTLKQNGRNGEIRVAFVLYNNLGPYLSTENASMKLGTEALSTNHSVIVNSPVITAAINKEFSNKVYLADPVVFTVKHIKQSEENFNPNCSFWSYSKRTMTGYWSTQGCRLLTTNKTHTTCSCNHLTNFAVLMAHVEVKHSDAVHDLLLDVITWVGILLSLVCLLICIFTFCFFRGLQSDRNTIHKNLCISLFVAELLFLIGINRTDQPIACAVFAALLHFFFLAAFTWMFLEGVQLYIMLVEVFESEHSRRKYFYLVGYGMPALIVAVSAAVDYRSYGTDKVCWLRLDTYFIWSFIGPATLIIMLNVIFLGIALYKMFHHTAILKPESGCLDNIKSWVIGAIALLCLLGLTWAFGLMYINESTVIMAYLFTIFNSLQGMFIFIFHCVLQKKVRKEYGKCLRTHCCSGKSTESSIGSGKTSGSRTPGRYSTGSQSRIRRMWNDTVRKQSESSFITGDINSSASLNREGLLNNARDTSVMDTLPLNGNHGNSYSIASGEYLSNCVQIIDRGYNHNETALEKKILKELTSNYIPSYLNNHERSSEQNRNLMNKLVNNLGSGREDDAIVLDDATSFNHEESLGLELIHEESDAPLLPPRVYSTENHQPHHYTRRRIPQDHSESFFPLLTNEHTEDLQSPHRDSLYTSMPTLAGVAATESVTTSTQTEPPPAKCGDAEDVYYKSMPNLGSRNHVHQLHTYYQLGRGSSDGFIVPPNKDGTPPEGSSKGPAHLVTSL",glycan array binding signal (z-score),[1],1.34
same,glycan array binding signal (z-score),[2],-0.23
same,glycan array binding signal (z-score),[3],-0.592
same,glycan array binding signal (z-score),[4],-1.01
same,glycan array binding signal (z-score),[5],-0.765
same,glycan array binding signal (z-score),[6],1.03
same,glycan array binding signal (z-score),[7],0.183
same,glycan array binding signal (z-score),[8],-0.155
same,glycan array binding signal (z-score),[9],-0.961
same,glycan array binding signal (z-score),[10],-0.249
same,glycan array binding signal (z-score),[11],-0.387
same,glycan array binding signal (z-score),[12],0.338
same,glycan array binding signal (z-score),[13],-0.937
same,glycan array binding signal (z-score),[14],-0.675
same,glycan array binding signal (z-score),[15],-1.16
same,glycan array binding signal (z-score),[16],-1.31
same,glycan array binding signal (z-score),[17],0.242
same,glycan array binding signal (z-score),[18],-1.27
same,glycan array binding signal (z-score),[19],2.19
same,glycan array binding signal (z-score),[20],-0.194
same,glycan array binding signal (z-score),[21],0.417
same,glycan array binding signal (z-score),[22],-1.53
same,glycan array binding signal (z-score),[23],0.957
same,glycan array binding signal (z-score),[24],0.616
same,glycan array binding signal (z-score),[25],-0.194
same,glycan array binding signal (z-score),[26],1.6
same,glycan array binding signal (z-score),[27],0.63
same,glycan array binding signal (z-score),[28],0.37
same,glycan array binding signal (z-score),[29],1.42
same,glycan array binding signal (z-score),[30],3.81
